Assay results: article PMC3767733
No constants are given. Whether binding was seen depends on the method and setting. In cells and extracts the contact can be indirect. Some binding calls cover weakened binding; strength is not graded here.

By UniProt entry, the sequences of proteins in these tests, tags left out. Residues count along the entry.
UniProt O08589, residues 21-92: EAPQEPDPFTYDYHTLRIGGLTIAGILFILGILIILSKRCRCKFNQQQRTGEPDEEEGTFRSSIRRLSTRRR

Molecular target: T1, Kir2.1 (rat (endogenous in rat ventricular tissue)) (UniProt Q64273)
T1 sequence: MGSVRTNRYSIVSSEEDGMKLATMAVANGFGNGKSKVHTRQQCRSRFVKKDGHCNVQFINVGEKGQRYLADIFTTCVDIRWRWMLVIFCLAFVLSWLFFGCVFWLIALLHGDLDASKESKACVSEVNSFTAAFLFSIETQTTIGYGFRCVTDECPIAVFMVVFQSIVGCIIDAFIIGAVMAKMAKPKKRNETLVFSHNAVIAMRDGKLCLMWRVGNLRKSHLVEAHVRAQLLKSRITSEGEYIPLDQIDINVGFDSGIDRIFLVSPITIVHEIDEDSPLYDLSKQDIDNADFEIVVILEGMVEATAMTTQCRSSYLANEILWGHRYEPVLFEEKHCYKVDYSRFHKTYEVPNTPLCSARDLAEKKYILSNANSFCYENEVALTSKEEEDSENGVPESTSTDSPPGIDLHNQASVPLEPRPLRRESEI
Test: co-IP; pre-cleared whole cell lysates incubated with goat anti-Kir2.1 antibody on Protein A/G dynabeads overnight at 4°C; washed with 1% TBST; non-reducing, non-denaturing elution; blot with rabbit anti-PLM antibody

binding: binds
Substance: phospholemman (from UniProt O08589 21-92)
